# Source: PubChem BioAssay (NCATS)
# Where “and” joins values, the source holds several entries; their conditions need not be identical. Equal entries are not always repeated. The list shows a part of the results. Shown are side measurements of this screen, not its main read-out; they come without a call. For some of these results: The list favours compounds with an active or inconclusive main result. For some of these results: The note in brackets gives the kind of curve behind each potency; many fits are weak.
# Tests used:
# [1] = Validation of Assay for Modulators of Lamin A Splicing (AID 1459); details: Lamin A splicing dual RFP/GFP fluorescence reporter, ratio
# Outline: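 Splicing correction read as GFP (500-530 nm) over DsRed2 (575-640 nm) object intensity after 48 h compound exposure of reporter HeLa S3 clones (600 cells/well, 2% FBS medium); ancitabine and cycloheximide titrations, 0.5% DMSO as vehicle.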
# [2] = qHTS Assay for Lipid Storage Modulators (AID 1519); details: Drosophila S3 cells, BODIPY lipid droplet/cell ratio, laser cytometry, cells loaded with oleic acid
# Outline: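 Cells seeded at 5,000 per well were treated with compounds over a concentration series and loaded with oleic acid (400 uM, as added). Lipid droplet fluorescence (488 nm excitation, 500-530 nm channel) was read by laser-scanning cytometry and normalized to 20 uM Triacsin C.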
# [3] = qHTS Assay for Modulators of Human Peripheral Myelin Protein 22 (PMP22) Expression/Activity (AID 1967); details: Cell-based PMP22 reporter, dual-color luciferase ratio
# Outline: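 Readout is the corrected green/red luminescence ratio after 24 h compound exposure, normalised to untreated cells (0%). Engineered MSC80 mouse Schwann cells express green luciferase from the mouse Pmp22 promoter and red luciferase from EF-alpha as internal control.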
# [4] = qHTS Validation Assay to Find Inhibitors of Chronic Active B-Cell Receptor Signaling (AID 485345); details: ABC-DLBCL cells, chronic BCR signaling reporter
# Outline: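 TMD8 ABC-DLBCL cells with dox-inducible green luciferase–IκBα fusion and red native luciferase; compounds 46 uM–3 nM, 4 h at 37C with doxycycline in 0.5% FBS IMDM. Green/red ratio normalized to basal and 10 uM MG-132.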
# [5] = qHTS assay for small molecule antagonists of androgen receptor signaling (AID 588516); details: AR-UAS-bla HEK293, beta-lactamase ratio, antagonist mode, 16 h
# Outline: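 Antagonist-mode qHTS: inhibition of R1881 (10 nM)-driven beta-lactamase expression in GripTite HEK 293 cells is measured after 16 h; values are Hill-derived IC50s normalized between R1881 and DMSO wells.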
# [6] = qHTS assay for small molecule antagonists of peroxisome proliferator-activated receptor delta signaling (AID 588535); details: HEK293T PPARd-UAS-bla, beta-lactamase FRET ratio, 18 h; 460 nm channel;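 note: cells co-treated with a PPAR-delta agonist as stimulator during compound exposure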
# Outline: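 Inhibition of PPAR-delta response element-driven beta-lactamase expression is measured in HEK293T cells exposed to a compound titration series for 18 hrs at 37 C. Half-maximal inhibition comes from Hill equation fitting.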
# [7] = qHTS assay for small molecule agonists of retinoid X receptor alpha signaling (AID 588544); details: HEK293T RXRa-UAS-bla, beta-lactamase reporter, 18 h; 530 nm emission
# [8] = qHTS assay for small molecule antagonists of retinoid X receptor alpha signaling (AID 588546); details: HEK293T RXRa-UAS-bla, beta-lactamase ratio, antagonist mode; measured here: W530 green channel, cytotoxicity proxy;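 note: cells stimulated with 9-cis-retinoic acid as agonist; % is set by controls: 0 for no effect and ±100 for the full control effect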
# Outline: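 Beta-lactamase reporter inhibition, read as CCF4 fluorescence ratio (ex 405, em 460/530 nm) after 2 h at RT. HEK293T UAS-bla cells, 2500/well, were stimulated with 9-cis-RA at 500 or 100 nM final alongside test compound for 18 h at 37 C.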
# [9] = S16 Schwann cell PMP22 intronic element beta-lactamase assay (AID 624044); details: S16 rat Schwann cells, PMP22 element beta-lactamase FRET, 24 h; measured here: 460 nm blue channel
# Outline: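 Beta-lactamase reporter under a PMP22 intronic regulatory element in stable S16 rat Schwann cells; 24 h compound exposure. 460 nm blue signal normalized between DMSO (0%) and potassium clavulanate, with 535 nm FRET tracking viability; curves classed by r2 and response.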
# [10] = A High-Content qHTS Against Drug Library for the Identification of Small Molecules that Inhibit DYT1 Early Onset Primary Dystonia-Associated Cell Pathology (AID 1645839); details: HEK293 Flp-In EGFP-delE TorsinA, punctate imaging, 48 h; measured here: cell count cytotoxicity
# Outline: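 Induced EGFP-delE TorsinA cells are imaged after 48 h of compound treatment. Punctate fusion-protein distribution gives the %pathology value, while nuclei counts flag toxicity. Wild-type EGFP-hTOR1A cells define the normal pattern.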
# [11] = qHTS for identification of novel therapeutic agents for treatment of microphthalmiaassociated transcription factor (MiT) renal cell carcinoma (RCC) (AID 1963991); details: CellTiter-Glo, 48 h; for z-score: stronger effect = lower value
# Outline: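 Three TFE3-fusion RCC lines (UOK109, UOK124, UOK145), 500 cells/well in complete medium, were treated with MIPE 4.0 compounds for 48 hours at 37 C. Viability was by CellTiter-Glo luminescence, normalized to DMSO (100%) and empty wells (0%); curves fitted over 11 concentrations.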
# [12] = qHTS drug screen for cell cycle checkpoint inhibitors in PARPi-resistant BRCA-mutant ovarian cancer cell lines. (AID 1963452); details: PEO1/OlaR viability, CellTiter-Glo luminescence, 96 h; measured here: PEO1 parental viability
# Outline: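 PEO1, PEO4 and PEO1/OlaR ovarian cancer cells, 600 per well, exposed 96 h at 37C to a dilution series. Viability read by CellTiter-Glo luminescence, normalized to DMSO and empty wells; activity summarized as Z-AUC.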
# [13] = measured here: cell count channel max response
# [14] = measured here: cell number channel AC50
# [15] = measured here: lipid (BODIPY) channel AC50
# [16] = measured here: lipid channel max response
# [17] = measured here: green reporter channel AC50, mouse Pmp22 promoter in mouse Schwann cells
# [18] = measured here: red reporter channel AC50, EF-alpha promoter control reporter in MSC80 mouse Schwann cells
# [19] = measured here: CBR control luciferase (viability counter)
smiles,measurement,setting,value
O=c1c(-c2ccc(O)cc2)coc2cc(O)cc(O)c12,AC50,[1]; measured here: GFP channel,"28.2 µM [falling, single point]"
same,max response,[2]; [13],-10.5% and -64.6%
same,AC50,[2]; [14],"39.8 µM [falling, single point]"
same,AC50,[2]; [15],"12.6 µM [falling, partial curve] and 39.8 µM [falling, single point]"
same,max response,[2]; [16],-46.7% and -68%
same,AC50,[3]; [17],"12 µM [falling, partial curve]"
same,AC50,[3]; [18],"16.9 µM [falling, full curve]"
same,AC50,[4]; [19],"4.61 µM [rising, full curve, poor fit]"
same,AC50,[5]; measured here: W460 blue channel fit,"20 µM [falling, partial curve, poor fit]"
same,AC50,"[5]; measured here: W530 green channel, cytotoxicity/artifact","3.55 µM [rising, full curve, poor fit]"
same,max response,[6],6.8% and 1.05%
same,max response,[7],27.6% and 30.9%
same,max response,[8],36.3%
same,AC50,[9],"25.1 µM [falling, partial curve]"
same,AC50,[10],"0.562 µM [falling, full curve, poor fit]"
same,z-score,"[11]; TFE3-RCC UOK109 viability, measured here: UOK109 Z-AUC",0.52
same,z-score,"[11]; TFE3-RCC viability, measured here: UOK124 Z-AUC",-0.488
same,z-score,"[11]; TFE3-RCC viability, measured here: UOK145 Z-AUC",-0.234
same,AC50,"[11]; TFE3-RCC viability, measured here: UOK145 cell viability","20.9 µM [falling, partial curve, poor fit]"
C[C@@H](CN1CCC(Cc2ccccc2)CC1)[C@@H](O)c1ccc(O)cc1,AC50,[1]; measured here: GFP channel,"10 µM [rising, partial curve, poor fit]"
same,max response,[2]; [13],38.5%
same,AC50,[2]; [14],"14.1 µM [rising, partial curve, poor fit]"
same,AC50,[2]; [15],"15.8 µM [rising, partial curve, poor fit]"
same,max response,[2]; [16],42.6%
O=C(/C=C/c1ccc(O)c(O)c1)OCCc1ccccc1,AC50,[1]; measured here: GFP channel,"3.55 µM [rising, full curve, poor fit]"
same,AC50,[3]; [18],"37.9 µM [falling, partial curve, poor fit]"
same,AC50,[4]; measured here: CBG/CBR ratio read-out,"14.6 µM [falling, partial curve]"
same,AC50,[4]; [19],"8.2 µM [falling, partial curve]"
CCCC(C(=O)OCCN(CC)CC)(c1ccccc1)c1ccccc1,AC50,[1]; measured here: RFP channel,"11.2 µM [falling, partial curve, poor fit]"
same,AC50,[3]; [17],"42.6 µM [falling, full curve]"
same,AC50,[3]; [18],"42.6 µM [falling, full curve]"
same,AC50,[4]; [19],"18.4 µM [falling, single point]"
same,AC50,[10],"17.8 µM [falling, partial curve, poor fit]"
O=S(=O)(NCCNC/C=C/c1ccc(Br)cc1)c1cccc2cnccc12,AC50,[1]; measured here: RFP channel,"31.6 µM [falling, single point]"
same,AC50,[3]; [17],"42.6 µM [falling, partial curve]"
same,AC50,[3]; [18],"47.8 µM [falling, partial curve]"
same,AC50,[12],"15.5 µM [falling, single point]"

# An excerpt of these results, tab-delimited:
smiles	measurement	setting	value
O=c1c(-c2ccc(O)cc2)coc2cc(O)cc(O)c12	AC50	[10]	0.562 µM [falling, full curve, poor fit]
same	z-score	[11]; TFE3-RCC UOK109 viability, measured here: UOK109 Z-AUC	0.52
same	z-score	[11]; TFE3-RCC viability, measured here: UOK124 Z-AUC	-0.488
